Laboratory results taken from US7238659B2, “Reducing axon degeneration with proteasome inhibitors” (Children's Medical Center Corporation, priority 2003, dated 2007).
For part of these data: At least one structure is not confirmed: it was looked up by name or label, or the drawing left a doubt. Some results were stated once for a whole list of compounds, not compound by compound. Peptide text beside a SMILES is read from it. * marks the point of attachment. Cbz = O=C(OCc1ccccc1)*

What was measured:
[1] = system: HD transgenic mice of the R6/2 strain; test: Huntington's disease (HD) animal model, oral administration in diet; format: in vivo; parameters: key to the marks not given beside the values; details: R6/2 mice, diet supplemented with 1, 2, or 3% inhibitor
[2] = system: transected axons from cultured sympathetic neurons; test: Wallerian degeneration of transected axons in cultured sympathetic ganglia; format: cell-based, rat; details: dose-response studies 1-100 mM
Source text: Inhibiting the ubiquitin-proteasome pathway delays Wallerian degeneration. Wallerian degeneration in most transected mammalian nerve fibers is a complex sequence that entails degradation of the axon, changes in the ensheathing and glial cells, alterations in the blood-tissue barriers, and responses of macrophage-lineage cells (reviewed by Griffin et al., 1995). To study the underlying mechanisms involved in the axon degeneration process, we have used the degeneration of transected axons from cultured primary neurons as models (Buckmaster et al., 1995; George et al., 1995; Wang et al., 2001). In cultured sympathetic ganglia derived from postnatal day 3 (p3) rats, soma-deprived axons undergo a typical degenerative process (herein, George et al., 1995; Wang et al., 2001). The severed axons first appear normal for 6-10 hr, depending upon the duration of culturing prior to axotomy. For sympathetic ganglia that have been cultured for 5 days, the severed axons begin to develop such signs of early degeneration as focal swelling and beading approximately 8 hrs after the axons had been separated from their cell bodies. In most cases, the axons would be completely degenerated and detached after 12-16 hr post-axotomy. Similar degenerative processes were also observed in other types of cultured neurons, such as chicken dorsal root ganglion neurons and retinal ganglion cells. […]

Compound	Enhanced Survival [1]	Enhanced Body Weight [1]	Enhanced Rotarod Performance [1]	Reduced Brain Atrophy [1]	concentration of most robust effects [2] [mM]
CC(C)C(O)C12NC(=O)C(C)(C)C1OC2=O (stereo not drawn) [α-Methylomuralide, α-Methyl clasto-Lactacystin β-Lactone]	++++				
CC(C)[C@H](O)[C@@]12NC(=O)[C@H](C)[C@@H]1OC2=O [PS-519, clasto-Lactacystin β-Lactone]	+++	++++	++++	+++	
CC(C)C[C@@H](C=O)NC(=O)[C@H](CC(C)C)NC(=O)[C@H](CC(C)C)NC(=O)OCc1ccccc1 [MG-132, Carbobenzoxy-L-leucyl-L-leucyl-L-leucinal] (Cbz-Leu-Leu-Leu-aldehyde)					10 to 20
